# Assay results from PubChem BioAssay AID2685 (National Center for Advancing Translational Sciences (NCATS), 2010).
# Among all 320,000 compounds or so, about 2,100 (0.66%) were called active. Inconclusive means that the source gave no clear call. Such entries were picked first, then a sample of the others. The call rests on the fitted dose curve; in most records, active means well fitted inhibition curve with a large enough effect in the signal ratio, with a control signal flat (not every such curve was filed as active); inconclusive means small, poorly fitted or top-dose-only effect, or effect the other way, or a change in a side signal; inactive means flat fitted curve, though single readings scatter; the % refers to the signal ratio. Where the call is inconclusive, the potency comes from a doubtful curve fit.
# Test: qHTS Assay for Lipid Storage Modulators in Drosophila S3 Cells
# Settings: BODIPY lipid droplet fluorescence, 18-24 h, cells fed with added oleic acid; lipid storage change, negative = inhibition: at 46.1 µM (top of the series) unless noted
# Outline: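 Drosophila S3 cells got compounds at several concentrations plus oleic acid (400 uM solution). Laser-scanning cytometry with 488 nm excitation read lipid droplets at 500-530 nm and cells at 575-640 nm. Percent activity was relative to 20 uM Triacsin C.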
# On the % scale 0 is the no-effect control and ±100 the full control effect; potency means the concentration at half of the fitted maximal effect.
Structure (SMILES),Potency,"lipid storage change, negative = inhibition"
O=C1NCC(COCc2ccccc2)O1 (stereo not drawn),"inconclusive: 0.731 µM [falling, partial curve, poor fit]",
CCNc1nc(Cl)nc(NCc2ccccc2)n1,,inconclusive: 30.9%
CCOC(=O)[C@@H]1[C@H]2COc3ccccc3[C@@H]2N2C(=O)N(c3ccc(C)cc3)C(=O)[C@]12C,"inconclusive: 32.6 µM [activator, partial curve, poor fit]",
O=C1c2ccccc2-n2c1nc1ccccc1c2=O,,inconclusive: -19.6%
O=C1CN(C(=O)Cn2ncc(Cl)c(Cl)c2=O)c2ccccc2N1,,inconclusive: 6.22%
Cc1nn(C)c(C)c1CNC(=O)/C=C/c1ccccc1F,,inconclusive: 18.9%
O=c1cc(-c2ccccc2)oc2cc(OCc3ccccc3)cc(O)c12,,inconclusive: -0.427%
CCOc1cc(C(=O)Nc2cc(=O)n(C)c(=O)n2C)cc(OCC)c1OCC,,inconclusive: -84.5%
CCOC(=O)C1(Cc2ccc(OC)cc2)CCN(C(=O)C2CC(=O)N(C3CC3)C2)CC1 (stereo not drawn),,inconclusive: -19.2%
O=C(COC(=O)c1ccccc1Cl)Nc1ccc2[nH]c(=O)[nH]c2c1,,inconclusive
COc1ccc(-c2nnn(CC(=O)c3ccccc3)n2)cc1OC,,inconclusive: 55.1%
CCOc1ccccc1OCC(=O)N/N=C(\C)Cc1ccc(OC)cc1,,inconclusive: 20.8%
O=C(O)CCC(=O)Nc1sc2c(c1C(=O)Nc1cccc3ccccc13)CCCCC2,,inconclusive: 15.7%
CC1(c2ccccc2)CC(C)(C)N2C(=O)Cc3cccc1c32 (stereo not drawn),,inconclusive: -10.2%
Cc1c(NC(=S)SCc2ccccc2)c(=O)n(-c2ccccc2)n1C,,inconclusive: -24.9%
COc1ccc(NC(=O)C2CC(=O)N(C(C)C)C2)cc1 (stereo not drawn),"inconclusive: 0.0326 µM [falling, full curve, poor fit]",
CC(=O)C(Sc1nnnn1-c1ccc(O)cc1)c1ccccc1 (stereo not drawn),,inactive
CCCCSc1nn[nH]n1,"inconclusive: 0.731 µM [falling, full curve, poor fit]",
O=C(N/N=C/c1cccnc1)c1ccccc1NS(=O)(=O)c1cccs1,,inconclusive: -17.5%
COCCCNC(=O)CSc1c2c(nc3ccc(Cl)cc13)CCCC2,,inconclusive: -2.05%
CNC(=O)c1nnsc1S(=O)c1ccc(Cl)cc1 (stereo not drawn),"inconclusive: 29.1 µM [cytotoxic, partial curve, poor fit]",
CCOC(=O)c1ccccc1NS(=O)(=O)c1ccccc1,"inconclusive: 1.03 µM [activator, full curve, poor fit]",
CC1CN(S(=O)(=O)c2cccc(C(=O)OC/C(O)=C(\C#N)c3nc4ccccc4[nH]3)c2)CC(C)O1 (stereo not drawn),"inconclusive: 29.1 µM [cytotoxic, single point]",
CCC(=O)N(Cc1cc2cc(OC)ccc2[nH]c1=O)c1ccc(C)cc1,"inconclusive: 23.1 µM [falling, single point]",
Cn1c2ccccc2c2cnn(CC(=O)Nc3ccc(Cl)cc3)c(=O)c21,,inconclusive: 9.48%

Structure (SMILES),Potency,"lipid storage change, negative = inhibition"
CCN(Cc1nc2ccccc2c(=O)[nH]1)C(=O)C1CC(=O)N(c2cccc3ccccc23)C1 (stereo not drawn),"inconclusive: 0.0041 µM [falling, full curve, poor fit]",
COc1cccc(NC(=O)CN(C)C(=O)c2cc(-c3ccccc3)nc3ccccc23)c1,"inconclusive: 1.84 µM [activator, full curve, poor fit]",
CCN(CC)CCCNc1nc(CN2CCOCC2)nc2sc3c(c12)CCC3,,inconclusive: 15.2%
Cc1ccc(OCCn2cc(/C=C(\C#N)C(=O)NCC3CCCO3)c3ccccc32)cc1 (stereo not drawn),,inconclusive: -46.3%
Cc1cc(C(=O)OCC(=O)N2CCc3ccccc32)ccc1[N+](=O)[O-],,inconclusive: 66.2%
O=C(CSc1nnc2c3ccccc3c3ccccc3c2n1)Nc1ccccc1F,,inconclusive: -10.2%
CC(=O)c1c(C)oc2ccc(N(C(=O)c3ccncc3)S(=O)(=O)c3ccccc3)cc12,,inconclusive: 22.7%
COc1ccc(NC(=O)CCC(=O)OCc2ccc([N+](=O)[O-])cc2)cc1,,inconclusive: 17.2%
Cc1cnccc1CN(C)C(=O)C1CCC(=O)N(Cc2ccccc2F)C1 (stereo not drawn),"inconclusive: 29.1 µM [activator, partial curve]",
Cc1nonc1NC(=O)CSc1nnnn1-c1ccccc1,,inconclusive: -60.9%
O=C(Nc1ccc(S(=O)(=O)NC2=NCCCCC2)cc1)c1ccc([N+](=O)[O-])s1,,inconclusive: -50%
C/C(=N\N=C1\NC(=O)C(CC(=O)Nc2ccc(Cl)cc2)S1)c1ccco1 (stereo not drawn),,inconclusive: 0.048%
O=C(Nc1ccccc1C(=O)Nc1ccccc1C(=O)NCc1ccco1)c1ccco1,"inconclusive: 29.1 µM [activator, single point]",
CC(=O)Nc1ccc(C(=O)OCc2ccc(Cl)c(Cl)c2)cc1,"inconclusive: 1.03 µM [activator, full curve, poor fit]",
Cc1cc2c(cc1S(=O)(=O)N1CCN(c3ccc(Cl)cc3)CC1)OCCN2C,,inconclusive: 2.59%
CCOc1cc(N2CCOCC2)c(OCC)cc1NC(=O)COC(=O)c1cc2ccccc2cc1O,"inconclusive: 6.51 µM [activator, single point]",
CCCCC(=O)NNC(=S)NC(=O)c1cccc([N+](=O)[O-])c1,,inconclusive: -22.2%
CSc1ncccc1C(=O)N(C)CC(=O)Nc1cccc(F)c1,"inconclusive: 32.6 µM [activator, single point]",
Cc1ccccc1CNC(=O)C1CCC(=O)N(Cc2cccc(F)c2)C1 (stereo not drawn),"inconclusive: 18.4 µM [activator, single point]",
Cc1ccc(SCC(=O)Nc2ccc3c(c2)C(=O)N(C)C3=O)cc1,,inconclusive: 2.48%
COc1ccccc1NC(=O)Nc1nn(C)c2cccc(OC)c12,,inconclusive: -27.6%
Cc1ccc(C)c(CNS(=O)(=O)c2c(C(=O)N3CCCC3)c(C)n(C)c2C)c1,"inconclusive: 16.4 µM [activator, partial curve, poor fit]",
Cc1ccc(CNC(=O)N2CCN(S(=O)(=O)c3ccccc3)CC2)cc1,"inconclusive: 0.651 µM [falling, single point]",
Cc1ccc2cc3c(NC(=O)CC(C)C)nn(C)c3nc2c1,"inconclusive: 1.16 µM [activator, partial curve]",
Cc1c(Cc2ccccc2)c(=O)oc2cc(OCC(=O)NC(Cc3ccc(Cl)cc3)C(=O)O)ccc12 (stereo not drawn),"inconclusive: 29.1 µM [activator, single point]",

# Three entries from above, set out differently.
Structure (SMILES)	Potency	lipid storage change, negative = inhibition
O=C(Nc1ccc(S(=O)(=O)NC2=NCCCCC2)cc1)c1ccc([N+](=O)[O-])s1		inconclusive: -50%
O=C(Nc1ccccc1C(=O)Nc1ccccc1C(=O)NCc1ccco1)c1ccco1	inconclusive: 29.1 µM [activator, single point]	
CCOc1cc(N2CCOCC2)c(OCC)cc1NC(=O)COC(=O)c1cc2ccccc2cc1O	inconclusive: 6.51 µM [activator, single point]	

# Following part:

Structure (SMILES),Potency,"lipid storage change, negative = inhibition"
Clc1ccc(N/N=C/c2ccncc2)cc1Cl,"inconclusive: 1.84 µM [activator, partial curve]",
Cc1ccc(C(=O)N/C(=C\c2ccccc2)C(=O)NCCCn2ccnc2)cc1,,inconclusive: 14%
CN(C)CCNC(=O)Cc1ccc([N+](=O)[O-])cc1,,inconclusive: -18.7%
CCc1ccccc1NC(=O)Nc1cnccn1,,inconclusive: -50.9% [at 0.00295 µM]
CC(=O)Nc1ccc(NC(=O)c2ccc([N+](=O)[O-])cc2Cl)cc1,"inconclusive: 6.51 µM [rising, partial curve, poor fit]",
CCOC(=O)c1ccccc1Oc1c(F)c(F)nc(NCCO)c1F,"inconclusive: 5.8 µM [falling, full curve, poor fit]",
C=CCNC(=O)/C(C#N)=C\c1cc(Cl)c(O)c(OCC)c1,,inactive
Cc1cccc(NC(=S)N=Nc2c(O)[nH]c3ccccc23)c1,"inconclusive: 32.6 µM [falling, single point]",
Cc1ccc(NC2=CC(=O)CC(c3ccc(Cl)cc3)C2)cc1 (stereo not drawn),"inconclusive: 3.66 µM [activator, single point]",
C/C(=N\Nc1ccc(F)cc1F)c1ccc(N2CCOCC2)cc1,"inconclusive: 1.16 µM [activator, single point]",
COc1ccc(C(C)=O)cc1COC(=O)c1cc(=O)c2ccccc2o1,active: 18.4 µM,
COc1cc(CNn2cn[nH]c2=S)cc(Cl)c1OCc1ccccc1,"inconclusive: 2.31 µM [activator, partial curve, poor fit]",
CS(=O)(=O)c1ccc(NC(=O)c2ccccc2-n2cnnn2)cc1,,inconclusive: -1.94%
CN(C(=O)C1CCCN(S(=O)(=O)c2cccc([N+](=O)[O-])c2)C1)C1CCS(=O)(=O)C1 (stereo not drawn),"inconclusive: 1.46 µM [falling, single point]",
CCOc1ccc(NC(=S)N2CCc3cc(OC)c(OC)cc3C2COc2ccc3c(C)cc(=O)oc3c2)cc1 (stereo not drawn),,inconclusive: 10.8%
Cc1nnc(SCC(=O)c2ccc(Cl)cc2)s1,"inconclusive: 0.0046 µM [falling, full curve]",
CCc1ccc(C(=O)CSc2ncn[nH]2)cc1,,inconclusive: 0.295%
O=S(=O)(c1ccccc1)C(/C=N\O)/C=C/c1ccccc1 (stereo not drawn),,inconclusive: 39.1%
CCOC(=O)C1CCCN(C(=O)c2cc(-c3ccc(C)cc3)nc3ccccc23)C1 (stereo not drawn),,inconclusive: 33.2%
COc1ccc(C(=O)O/N=C(\N)Cc2ccc(Cl)cc2)cc1OC,,inconclusive: -47.8%
CS(=O)(=O)N1CC2CCCN2c2ccc(C(F)(F)F)cc21 (stereo not drawn),"inconclusive: 29.1 µM [falling, single point]",
CC(=O)Nc1nc(-c2ccccc2)c(-c2ccccc2)o1,,inconclusive: -4.08%
O=C(NCc1cccs1)C1CC(=O)N(c2ccc(Cl)cc2)C1 (stereo not drawn),,inconclusive: 4.04%
